# Laboratory results: PubChem BioAssay AID1159578 (Peter MacCallum Cancer Centre, 2015)
# Screen: 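siRNA pools altering how lymphatic endothelial cells close a scratch wound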 (primary screen)
# System: human lymphatic endothelial cells
# Reagents: siRNA pool against human genes, 40 nM
# Time to read-out: 48 h after transfection
# Measured: 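High-content imaging of dye-stained cells in a scratch assay measures filled wound area and nuclei per well; duplicate means given as ratio to mock and robust z-score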
# Scale: migration robust z-score: higher = faster migration into the scratch; migration relative to mock: higher = more scratch area covered than mock; nuclei per well: higher = more cells in the well
# Rule for the call: 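Migration changed when robust z exceeds 2 or falls below -2 and mean nuclei number is at least 3300; otherwise not called changed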
# Meaning of the calls: active = migration changed; inactive = no migration change, or too few cells
# The whole screen tested about 18,000 reagents; this is an unselected part. About 1,030 of them (5.7%) were called active. 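Inactive calls also include pools with fewer than 3300 nuclei, whose migration was not assessed.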 Raw values vary from plate to plate and are shown uncorrected.
target,PubChem SID,migration robust z-score,migration class with cell-count check,migration relative to mock,"nuclei per well, duplicate mean",call
FBXW10B,SID255365313,1.09,migration z between -2 and 2; enough cells,1.17,4454,inactive
IL17C,SID255356969,-1.08,migration z between -2 and 2; enough cells,0.6,4878,inactive
TMBIM6,SID255352812,1.02,migration z between -2 and 2; enough cells,1.16,5292,inactive
TMEM120B,SID255363222,-0.56,migration z between -2 and 2; enough cells,0.74,6008,inactive
DTWD2,SID255364867,0.14,migration z between -2 and 2; enough cells,0.92,6968,inactive
LMF1,SID255360003,-0.22,migration z between -2 and 2; enough cells,0.82,5252,inactive
NAA16,SID255360330,0.36,migration z between -2 and 2; enough cells,0.88,5956,inactive
SNTB2,SID255352562,-0.1,migration z between -2 and 2; enough cells,0.86,5976,inactive
DYNLT3,SID255352799,0.82,migration z between -2 and 2; enough cells,1.1,6242,inactive
FANCF,SID255349626,-0.6,migration z between -2 and 2; enough cells,0.73,7247,inactive
HMCES,SID255359182,0.66,migration z between -2 and 2; enough cells,1.06,4884,inactive
ACSL5,SID255357862,0.52,migration z between -2 and 2; enough cells,0.9,4596,inactive
SYF2,SID255356573,1.01,migration z between -2 and 2; enough cells,1.15,6334,inactive
NRP1,SID255353848,0.18,migration z between -2 and 2; enough cells,0.84,5564,inactive
LRPAP1,SID255350800,1.12,migration z between -2 and 2; enough cells,1.02,6964,inactive
RPL3,SID255352161,-1.27,migration z between -2 and 2; enough cells,0.55,4024,inactive
JMJD8,SID255365016,-0.3,migration z between -2 and 2; enough cells,0.8,3370,inactive
IL36RN,SID255356806,-0.42,migration z between -2 and 2; enough cells,0.73,5344,inactive
OR8J1,SID255364173,0.94,migration z between -2 and 2; enough cells,1.14,5124,inactive
EIF3F,SID255353721,-1.24,migration z between -2 and 2; enough cells,0.56,6852,inactive
ERVFRD-1,SID255365849,-0.06,migration z between -2 and 2; enough cells,0.86,5928,inactive
C1orf210,SID255363417,-1.13,migration z between -2 and 2; enough cells,0.6,5926,inactive
ALX4,SID255359727,1.25,migration z between -2 and 2; enough cells,1.04,5852,inactive
LMBRD2,SID255361992,1.44,migration z between -2 and 2; enough cells,1.26,5892,inactive
ARL8B,SID255358500,-0.74,migration z between -2 and 2; enough cells,0.69,6369,inactive
ZNF563,SID255363345,0.39,migration z between -2 and 2; enough cells,0.99,5771,inactive
TTC16,SID255363655,0.02,migration z between -2 and 2; enough cells,0.89,6260,inactive
METTL26,SID255361335,-1.44,migration z between -2 and 2; enough cells,0.52,5164,inactive
STAC,SID255352659,0.96,migration z between -2 and 2; enough cells,1.14,5864,inactive
BRCA2,SID255348578,0.76,migration z between -2 and 2; enough cells,0.95,5784,inactive
GLG1,SID255349910,-0.28,migration z between -2 and 2; enough cells,0.82,5925,inactive
FOS,SID255349742,-0.44,migration z between -2 and 2; enough cells,0.72,5506,inactive
ARID1A,SID255353448,-0.28,migration z between -2 and 2; enough cells,0.75,5134,inactive
DNAH6,SID255364815,0.22,migration z between -2 and 2; enough cells,0.94,6350,inactive
CEP57,SID255354485,-0.76,migration z between -2 and 2; enough cells,0.69,7304,inactive
ITPKB,SID255350567,-0.26,migration z between -2 and 2; enough cells,0.76,6611,inactive
SEMA5B,SID255358008,0.68,migration z between -2 and 2; enough cells,1.06,6992,inactive
KRI1,SID255360089,1.83,migration z between -2 and 2; enough cells,1.36,5486,inactive
TAS2R8,SID255357371,-0.39,migration z between -2 and 2; enough cells,0.78,5868,inactive
ALKBH1,SID255353863,0.08,migration z between -2 and 2; enough cells,0.9,6683,inactive
VANGL1,SID255360957,0.97,migration z between -2 and 2; enough cells,1.14,7436,inactive
ARL2BP,SID255356338,1.19,migration z between -2 and 2; enough cells,1.19,6500,inactive
CUL1,SID255353565,2.7,migration z above 2; enough cells,1.32,5889,active
TRIM23,SID255348375,-1.43,migration z between -2 and 2; enough cells,0.53,5838,inactive
TMTC1,SID255361103,0,migration z between -2 and 2; enough cells,0.89,6272,inactive
H2BC13,SID255353484,-0.01,migration z between -2 and 2; enough cells,0.88,4864,inactive
ZNF670,SID255362078,-0.57,migration z between -2 and 2; enough cells,0.73,5498,inactive
FAM76A,SID255364012,-1.36,migration z between -2 and 2; enough cells,0.54,5142,inactive
IQCE,SID255356135,-1.12,migration z between -2 and 2; enough cells,0.59,6366,inactive
GNG13,SID255357894,-1.29,migration z between -2 and 2; enough cells,0.55,4871,inactive
TRIOBP,SID255355575,1.08,migration z between -2 and 2; enough cells,1.17,6183,inactive
RNF5,SID255352140,1.68,migration z between -2 and 2; enough cells,1.13,6186,inactive
EBI3,SID255354848,0.32,migration z between -2 and 2; enough cells,0.97,4662,inactive
AGTRAP,SID255359252,0.15,migration z between -2 and 2; enough cells,0.92,5394,inactive
ZFP37,SID255353173,-0.62,migration z between -2 and 2; enough cells,0.68,6326,inactive
OR4A5,SID255360860,-0.79,migration z between -2 and 2; enough cells,0.68,5799,inactive
TEX14,SID255359035,-1.5,under 3300 nuclei; migration not judged,0.52,2491,inactive

Looked up above:
Value of IL17C [SID255356969] under “migration class with cell-count check”: migration z between -2 and 2; enough cells
STAC [SID255352659], migration class with cell-count check = migration z between -2 and 2; enough cells
